Where no end group is shown, it is not given here. [ ]: non-standard residue; d: D form. The star is where a group is joined. Asn(Trt) = N[C@@H](CC(=O)NC(c1ccccc1)(c1ccccc1)c1ccccc1)C(=O)O; Trt = c1ccc(C(c2ccccc2)(c2ccccc2)*)cc1; Fmoc = O=C(OCC1c2ccccc2-c2ccccc21)*; OtBu = CC(C)(C)O*; Acm = CC(=O)NC*; tBu = CC(C)(C)*
Test: general procedure: hybrid (solid and solution phase) peptide synthesis; 2-CTC resin; HBTU/Cl-HOBt/DIPEA or EDC HCl/HOAt (fragment couplings)
[1] = oxidative folding step, HPLC, LCMS for protected fragments

Fmoc-[Asn(Trt)]VAC(Trt)T(tBu)GC(Acm)L-OtBu
step yield (coupling step): 94.00%

[Asn(Trt)]VAC(Trt)T(tBu)GC(Acm)L-OtBu
step yield (late stage modification step): 87.10%

Ala-Cys(Trt)-Thr(tBu)-Gly-Cys(Acm)-Leu(OtBu)
crude LC-MS purity (late stage modification step, HPLC, LCMS for protected fragments): >90%
step yield (late stage modification step, run 1): 82%
step yield (late stage modification step, run 2): 85.88%

Plecanatide
step yield (late stage modification step): 97.3%
oxidative folding yield (oxidative folding step): 48.91%
final HPLC purity [1]: >98%
final purity (method not given) [1]: >98%
final purity (method not given) (whole synthesis, HPLC, LCMS for protected fragments, scale of the general procedure 100 g resin): about 98%-98.5%
isolated yield (whole synthesis, overall, scale of the general procedure 100 g resin): about 60-70%

Fmoc-Ala-Cys(Trt)-Thr(tBu)-Gly-Cys(Acm)-Leu(OtBu)
crude LC-MS purity (coupling step, HPLC, LCMS for protected fragments): >99%
step yield (coupling step, run 1): 62%
step yield (coupling step, run 2): 93.24%

Source: patent US20230242581 (published 2023)
